Part of at least one peptide drawing is inferred or uncertain, most often the ends. Bridges are numbered along the chain shown (N, C = ends). Roman numbers before positions name the chains, in order. [ ]: non-standard residue; d: D form. Orn = NCCC[C@H](N)C(=O)O
Columns and labels:
[1] = Heat inactivation and recovery of catalytic activity; assay type: physicochemical
[2] = Hydrolysis of BTEE (esterase activity), followed spectrophotometrically; assay type: biochemical
[3] = Hydrolysis of the trypsin substrate BAEE; assay type: biochemical; details: not a chymotrypsin substrate
[4] = Hydrolysis of ATEE (esterase activity), followed by titration; assay type: biochemical
Procedure: Hydrolysis of ATEE at pH 8.1 in 0.05 molar sodium chloride solution followed classical Michaelis-Menten kinetics; kM=1.0 mM and kcat=0.042/sec(corresponding values for chymotrypsin are 0.7 mM; 3.0/sec), showing an activity approximately 1% that of chymotrypsin for this substrate.
Hydrolysis of BTEE and ZTONP were performed as described (Meth. Enzymol. volume XIX, Academic Press, New York, 1970, pp. 38-41). The progress of the reaction was followed spectrophotometrically. Progress of the hydrolysis of ATEE was followed by titration.

[5] = Circular dichroism (CD) spectroscopy, molar ellipticity at 222 nm; assay type: physicochemical
[6] = Hydrolysis of ZTONP (esterase activity), followed spectrophotometrically; assay type: biochemical
Procedure: Kinetic studies of purified Chymohelizyme 1 were performed using ATEE, BTEE or ZTONP as the substrate.
The progress of the reaction was followed spectrophotometrically. Progress of the hydrolysis of ATEE was followed by titration.

[7] = ATEE, pH 8.1, 0.05 molar sodium chloride solution

Question: What does the source list for “I: Ac-DEAGKKAEEELKKLLEELKKK[Orn]-NH2 / II: Ac-HEEAKKKAEKLLEELKKLK / III: Ac-EEAEEKAKRLLEELKKA / IV: Ac-SEKAKKLLEELKKLA (amide I:21-IV:C, I:22-II:C, II:19-III:C) [Chymohelizyme 1]”?
Answer: recovery of activity after heat inactivation ([1]; cooled, dissolved in glacial acetic acid and lyophilized): reassumed the correct catalytically active conformation; effect of heat on hydrolysis of substrates ([1]; heat): inactivation by heat; esterase activity against BTEE [2]: esterase activity; pH optimum of esterase activity for BTEE ([2]; 50 mM Tris-Cl, 50 mM sucrose, 9% dioxane, broad optimum): ~8.5 pH; esterase activity against BAEE [3]: no esterase activity; esterase activity against ATEE [4]: esterase activity; Km [4, 7]: 1000 µM; activity relative to chymotrypsin for ATEE [4, 7]: approximately 1%; kcat [4, 7]: 0.042 s⁻¹; helical structure ([5]; in 0.05 M aqueous NaCl solution): about 80%; helical structure ([5]; in 90% (v/v) aqueous ethanol): nearly fully helical; helical structure ([5]; in water): about 60%; esterase activity against ZTONP [6]: esterase activity; pH of peak activity for ZTONP hydrolysis ([6]; 50 mM Tris-Cl buffer): ~9 pH; ZTONP hydrolysis activity at around pH 10.3 ([6]; 50 mM Tris-Cl buffer, around pH 10.3): almost no activity; turnover number ([6]; ZTONP hydrolysis, initial turnover number): 6 to 8 s⁻¹; activity relative to native α-chymotrypsin for hydrolysis of ZTONP ([6]; initial rates of substrate hydrolysis): 2.5%
